Publication PMC9488889 (Nature Communications, 2022)
Strings that start with PEPTIDE1 are HELM notation: dots part the residues, brackets hold end groups and non-standard residues.

Experiment: general procedure: Fmoc solid-phase peptide synthesis; Rink amide resin; Oxyma/DIC
Details: whole synthesis, 214 nm, scale of the general procedure 0.1 mmol

Row | Substance | final HPLC purity [%]
1 | yICVWQDWSarAHRCmI | 100.0
2 | PEPTIDE1{[dY].I.C.V.[W1Me].Q.D.W.G.A.H.R.C.[mI].[am]}$PEPTIDE1,PEPTIDE1,3:R3-13:R3$$$V2.0 | 79.3
3 | PEPTIDE1{[dY].I.C.V.[W1Me].Q.S.W.[Sar].A.H.S.C.[mI].[am]}$PEPTIDE1,PEPTIDE1,3:R3-13:R3$$$V2.0 | 94.2
4 | PEPTIDE1{[dY].I.C.V.[W1Me].Q.D.W.[Sar].A.H.S.C.[mI].[am]}$PEPTIDE1,PEPTIDE1,3:R3-13:R3$$$V2.0 | 96.1
5 | PEPTIDE1{[dY].I.C.V.[W1Me].Q.S.W.[Sar].A.H.R.C.[mI].[am]}$PEPTIDE1,PEPTIDE1,3:R3-13:R3$$$V2.0 | 100.0
